Experiment [1] addresses T1, 4Ig-B7H3 (human, UniProt Q5ZPR3 27-461, limits assumed).
T1 construct: also called 4Ig-B73H3
T1 sequence (looked up): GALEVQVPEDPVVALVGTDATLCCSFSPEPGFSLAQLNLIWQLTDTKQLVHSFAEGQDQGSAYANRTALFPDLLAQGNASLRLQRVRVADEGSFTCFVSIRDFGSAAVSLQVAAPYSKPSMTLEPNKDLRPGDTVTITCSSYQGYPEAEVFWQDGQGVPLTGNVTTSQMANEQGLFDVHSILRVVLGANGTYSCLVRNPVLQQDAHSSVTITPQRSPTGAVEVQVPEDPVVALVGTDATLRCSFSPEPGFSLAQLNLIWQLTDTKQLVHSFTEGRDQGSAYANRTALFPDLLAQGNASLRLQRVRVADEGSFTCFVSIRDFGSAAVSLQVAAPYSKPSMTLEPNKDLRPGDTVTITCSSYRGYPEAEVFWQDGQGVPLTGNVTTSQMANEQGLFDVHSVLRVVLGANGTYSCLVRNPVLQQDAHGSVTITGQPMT
The experiment can be described thus: SPR. (In general: SPR reads the build-up and loss of mass on a sensor chip optically.)

For experiment [2], the target named is T1, 4Ig-B7H3. The experiment can be described thus: ELISA titled 'B7H3 ELISA'; legend: 4Ig-B7H3 (the ELISA method coats B7H3-mFc); IgG serially diluted. As for the experimental part: (§1) B7H3-mFc (100 ng/well) or 2IgB7H3 (R&D, Minneapolis, Minn.) (25 ng/well) were coated on polyvinyl microtiter plates in PBS overnight. Plates were then blocked with 0.5% BSA in PBS at 150 μl per well for 1 h at room temperature. Antibodies were added in triplicates with serial dilution in 0.5% BSA. Following incubation for 1 h at room temperature and washing with PBS, HRP-mouse anti-human Fc antibody, HRP-streptavidin, or HRP-mouse anti-Flag antibody was added. After incubation for 1 h at room temperature and further washing, the color was developed and quantified using an ELISA plate reader at 490 nm.
On the technique in general: ELISA stands for enzyme-linked immunosorbent assay.

Experiment [3] has as its target T2, 2Ig-B7H3 without Fc fusion (human, UniProt Q5ZPR3-2 29-245, limits assumed).
T2 construct: also called 2IgB7H3 (R&D)
T2 sequence (looked up): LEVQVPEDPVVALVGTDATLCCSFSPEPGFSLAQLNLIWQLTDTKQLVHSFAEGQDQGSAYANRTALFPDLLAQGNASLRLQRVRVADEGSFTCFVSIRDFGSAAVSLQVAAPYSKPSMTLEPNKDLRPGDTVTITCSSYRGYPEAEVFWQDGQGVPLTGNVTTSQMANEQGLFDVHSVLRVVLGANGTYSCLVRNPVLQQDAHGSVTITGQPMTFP
The experiment can be described thus: ELISA, right panel '2IgB7H3', scFv serially diluted 0.01-10 µg/ml. On the procedure:
as §1

No constants are given. Whether binding was seen depends on the method and setting. Some results given as binding are weak or reduced against the parent protein; the word gives no strength. For part of these data: Tags and fused reporters may be left off the sequences shown.

B1: hu8H9-H1L2 IgG1 (antibody, V domains shown)
VH: QVQLVQSGAEVKKPGASVKLSCKASGYTFTNYDINWVRQAPGQGLEWIGWIFPGDGSTQYNEKFKGKATLTTDTSTSTAYMELSSLRSEDTAVYFCARQTTATWFAYWGQGTLVTVSS
VL: EIVMTQSPATLSVSPGERVTLSCRASQSISDYLHWYQQKSHESPRLLIKYASQSISGIPARFSGSGSGTEFTLTINSVEPEDVGVYYCQNGHSFPLTFGQGTKLEIKR
In the case of B1, the binding result with 4Ig-B7H3 [1] and in the experiment with 4Ig-B7H3 [2] was “binds” each time.

B2: hu8H9-H2L2 IgG1 (antibody, V domains shown)
VH: QVQLVQSGAEVVKPGASVKLSCKASGYTFTNYDINWVRQAPGQGLEWIGWIFPGDGSTQYNEKFKGKATLTTDTSTSTAYMELSRLTSEDTAVYFCARQTTATWFAYWGQGTLVTVSS
VL: EIVMTQSPATLSVSPGERVTLSCRASQSISDYLHWYQQKSHESPRLLIKYASQSISGIPARFSGSGSGTEFTLTINSVEPEDVGVYYCQNGHSFPLTFGQGTKLEIKR
Take B2: the binding result in the experiment with 4Ig-B7H3 [1] and in the experiment with 4Ig-B7H3 [2] was “binds” in each case.

B3: hu8H9-H1L1 IgG1 (antibody, V domains shown)
VH: QVQLVQSGAEVKKPGASVKLSCKASGYTFTNYDINWVRQAPGQGLEWIGWIFPGDGSTQYNEKFKGKATLTTDTSTSTAYMELSSLRSEDTAVYFCARQTTATWFAYWGQGTLVTVSS
VL: EIVMTQSPATLSVSPGERVTLSCRASQSISDYLHWYQQKPGQAPRLLIKYASQSISGIPARFSGSGSGTEFTLTISSVQPEDVGVYYCQNGHSFPLTFGQGTKLEIKR
As for B3, the binding result with 4Ig-B7H3 [1] and with 4Ig-B7H3 [2] was “binds” throughout.

B4: hu8H9-H2L1 IgG1 (antibody, V domains shown)
VH: QVQLVQSGAEVVKPGASVKLSCKASGYTFTNYDINWVRQAPGQGLEWIGWIFPGDGSTQYNEKFKGKATLTTDTSTSTAYMELSRLTSEDTAVYFCARQTTATWFAYWGQGTLVTVSS
VL: EIVMTQSPATLSVSPGERVTLSCRASQSISDYLHWYQQKPGQAPRLLIKYASQSISGIPARFSGSGSGTEFTLTISSVQPEDVGVYYCQNGHSFPLTFGQGTKLEIKR
As for B4, the binding entry with 4Ig-B7H3 [1] and with 4Ig-B7H3 [2] was “binds” each time.

B5: hu8H9 clone S3.3 scFv (scFv)
scFv: QVQLVQSGAEVVKPGASVKLSCKTSGYTFTNYDINWVRQRPGQGLEWIGWIFPGDGSTQYNEKFKGKATLTTDTSTSTAYMELSSLRSEDTAVYFCARQTTATWFAYWGQGTLVTVSSGGGGSGGGGSGGGGSEIVMTQSPATLSVSPGERVTLSCRASQSISDYLYWYQQKSHESPRLLIKYASQSISGIPARFSGSGSGSEFTLTINSVEPEDVGVYYCQNGHSFPLTFGQGTKLELKR
notes: also called Sort3; not shown: FLAG and His tags
For B5, the binding entry in experiment [3] was “binds”.

The values above are taken from US20170240637A1 (Memorial Sloan Kettering, published 2017).
